Measured values as given in patent publication US20170037131A1.
No constants are given. Whether binding was seen depends on the method and setting. Some binding calls cover weakened binding; strength is not graded here.

Protein sequences, listed by entry. Tags and fused reporters are not part of them. Residues count along the entry.
UniProt P01589, residues 22-240: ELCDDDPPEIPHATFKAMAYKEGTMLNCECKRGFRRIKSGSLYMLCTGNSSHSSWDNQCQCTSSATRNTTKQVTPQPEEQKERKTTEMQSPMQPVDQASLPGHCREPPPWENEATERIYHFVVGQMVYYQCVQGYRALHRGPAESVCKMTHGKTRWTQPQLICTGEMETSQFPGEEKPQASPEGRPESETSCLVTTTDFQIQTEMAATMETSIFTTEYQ

Molecular target: CD25 (UniProt P01589)
Experiment: Biacore; antibody captured on a Protein A chip, antigen flowed at 100 nM

B1: HuMax-TAC anti-CD25 heavy chain paired with the anti-CD4 light chain of OKT4A (antibody, V domains shown)
VH: QVQLVQSGAEVKKPGSSVKVSCKASGGTFSRYIINWVRQAPGQGLEWMGRIIPILGVENYAQKFQGRVTITADKSTSTAYMELSSLRSEDTAVYYCARKDWFDYWGQGTLVTVSS
VL: DIQMTQSPSSLSASLGGKVTIACKASQDINNYIAWYQHKPGKGPRLLIHYTSTLQPGIPSRFSGSGSGRDYSFSISNLEPEDIATYYCLQYDNLLFTFGGGTKLEIKR
binding: binds
